The results are deposited in PubChem (AID1159506; NCATS, 2015).

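Luminescence from an EWS-FLI1 target-promoter (NR0B1) reporter, set against a CMV-promoter reporter, two days after silencing single genes in TC32 Ewing sarcoma cells. Each siRNA was applied at 20 nM. A z-score of the log NR0B1-over-CMV signal, less the median of siRNAs with the same seed; more negative means a stronger specific loss of the NR0B1 reporter.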

The strongest results of the screen are mostly left out here. Sequences are the guide (antisense) strand, without overhang.

| Sequence | target gene | seed-corrected z-score |
|---|---|---|
| `UGUAUACGAAGAUAAACUG` | ATXN2 | -1.187 |
| `UUUCGAUCAACCACGAAGU` | CXorf38 | -0.07172 |
| `UGAUUUCUGACAUACAGGC` | FAM46D | 1.181 |
| `UGAUCGUCUGGGAUGAUUG` | GATM | -0.2656 |
| `UUUCUGUAAACGUAAAACC` | PDCL2 | -0.6986 |
| `UCAGCGCACAGUCUUGAUG` | CDKAL1 | -0.05402 |
| `UAAGCAUCCAUACCCAGCU` | KRT6C | 0.07737 |
| `UCAGCAGUCAUUCUCGUUG` | PTPDC1 | 0.436 |
| `UUCCGUAAAAGUAGGGACC` | KIN | 1.652 |
| `UUCCUUUCAAGUUAGCUUU` | SERPINE3 | 0.6128 |
| `UGCAGAACUUUGCAGAGCC` | C20orf197 | 0.7797 |
| `UUUAGGUGCUUCUUGGUUC` | LINC00693 | 0.04055 |
| `AAAGUUCAAGGUGGAAUGC` | TMEM69 | 0.1161 |
| `UGGAUUGCUAAGCUCAUUC` | ADGRB3 | 0.5867 |
| `UGAUCGAAACUGUUCCUCC` | REV1 | -0.1123 |
| `AAUCGUUUCAUGCUUGGAG` | LOC729970 | 0.2013 |
| `UUAAUGUUUUGAUACGAGG` | BIRC2 | 0.8085 |
| `UUCGUUUACAUGCCCAGUG` | ANKRD40 | -1.342 |
| `UCCGUUUUCGUUUCCUGCC` | TULP1 | -0.03609 |
| `UUUCGAAUAAGUUGUAUUC` | BTBD16 | 0.2497 |
| `UUCAUGGAGUUGUCGAUGU` | ERGIC1 | 0.4863 |
| `UUUAAGAUCAGGUUCUCCA` | AK8 | -0.4051 |
| `UUCAGACUGAACUCCAUUC` | CRISPLD2 | 1.159 |
| `UCGGGCAUCUCCAUGGUAC` | DXO | -0.305 |
| `UAAUGUGGUGAAGAUAUCG` | KCNJ6 | 0.9672 |
| `UUUUGGUAAAGAGGUCAGC` | SRRM4 | 1.079 |
| `UUUUGGUUCACGUUGUUCC` | LOC644215 | 0.5529 |
| `UGUGCAACUUGCCUACUGC` | MGEA5 | 0.7929 |
| `UCUUCUAUGAAAAUACCCA` | KRTAP3-2 | -0.05361 |
| `UAUGGAGUUGAUUUUCUUG` | SHOX2 | -0.1636 |
| `UUUCAUACAACCGGGUAGC` | HPS5 | 0.08069 |
| `UUCAAUACGACCUUCGCCC` | C7orf60 | -1.627 |
| `UCUCCAAUAGCGACUGUCC` | FBXO3 | 0.5659 |
| `UGAUUAUUAUGGUCCGUAC` | AUH | -0.4907 |
| `UGAUGGUCACUUUUAGGGC` | CCR9 | -1.322 |
| `UCUGCAGCGACUUCAGCAG` | FAM198A | 0.2252 |
| `UUUCAAUUCACUGCUGUUG` | BMP6 | -0.3852 |
| `UUUUAUAGACCUGUUUUUG` | TOX | 1.336 |
| `UUUCAAUCGAUCUCUCUCC` | CUEDC1 | 0.6232 |
| `AAUGGAAAUUUUAUCCUCC` | CST5 | 0.113 |

For reference, 4 entries once more:

- UUUUAUAGACCUGUUUUUG against TOX | seed-corrected z-score 1.336
- AAUGGAAAUUUUAUCCUCC against CST5 | seed-corrected z-score 0.113
- UCCGUUUUCGUUUCCUGCC against TULP1 | seed-corrected z-score -0.03609
- AAAGUUCAAGGUGGAAUGC against TMEM69 | seed-corrected z-score 0.1161